Values quoted from earlier work, collected in patent publication US12350135B2, “Absorbent article with odor control composition” (The Procter & Gamble Company, priority 2021, dated 2025).
Some entries share one result that the patent states for a list of compounds. At least one structure is not confirmed: it was looked up by name or label, or the drawing left a doubt.

Conditions: cited from earlier work

SMILES: Cn1sc2c(c1=O)CCC2 [Promexal, 2-methyl-4,5-trimethylene-4-isothiazolin-3-one]
- stability over a wide pH range: 4-12

SMILES: O=c1[nH]sc2ccccc12 [Proxel, 1,2-benzisothiazolin-3-one]
- stability over a wide pH range: 4-12
